# Results: PubChem BioAssay AID2685 (National Center for Advancing Translational Sciences (NCATS), 2010)
# The whole screen tested about 320,000 compounds, of which about 2,100 (0.66%) were called active. Inconclusive means that the source gave no clear call. Such entries were picked first, then a sample of the others. Calls come from the whole dose curve; as a rule, active = well fitted inhibition curve with a large enough effect in the signal ratio, with a control signal flat (not every such curve was filed as active); inconclusive = small, poorly fitted or top-dose-only effect, or effect the other way, or a change in a side signal; inactive = flat fitted curve, though single readings scatter; the % refers to the signal ratio. Where the call is inconclusive, the potency comes from a doubtful curve fit.
# Experiment: qHTS Assay for Lipid Storage Modulators in Drosophila S3 Cells
# Details: BODIPY lipid droplet fluorescence, 18-24 h, cells fed with added oleic acid; lipid storage change, negative = inhibition: at 46.1 µM (top of the series) unless noted
# Procedure, shortened: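 Laser-scanning cytometry quantifies lipid droplet accumulation (500–530 nm total intensity; droplet/cell object ratio) in oleic acid-fed (400 uM added) Drosophila S3 cells treated with a concentration series. 20 uM Triacsin C defined 100% inhibition.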
# % is set by controls: 0 for no effect and ±100 for the full control effect; potency is the fitted concentration of half-maximal effect.
SMILES,Potency,"lipid storage change, negative = inhibition"
Clc1ccccc1OCc1nc(-c2ccccn2)no1,"inconclusive: 3.66 µM [activator, full curve, poor fit]",
CCOc1c(Br)cc(C(N)=O)cc1OCc1ccccc1,,inconclusive: -8.61%
COc1cc2ccccc2cc1C(=O)Nc1nnc(-c2ccncc2)o1,,inconclusive: -6.06%
CN1CCN(S(=O)(=O)c2ccc(NC(=O)COc3ccccc3Cl)cc2)CC1,,inconclusive: 31.7%
O=C(COc1ccc(-c2ccccc2)cc1)NNC(=O)Nc1ccc(F)cc1F,,inactive: 8.38%
CN(C)c1nc(C#N)nc(N2CCOCC2)n1,"inconclusive: 7.31 µM [activator, full curve, poor fit]",
COc1ccc(OC)c(NC(=O)NCCN2CCN(c3ccccc3)CC2)c1,,inconclusive: 260%
c1ccc(-c2ccccc2OCCCN2CCCC2)cc1,,inconclusive: -0.129%
CC(C)c1ccc(C2CC(=O)c3cnc(NC(=O)c4ccco4)nc3C2)cc1 (configuration not stated),"inconclusive: 11.6 µM [falling, partial curve, poor fit]",
O=C1SCCC1NC(=O)C(c1ccccc1)c1ccccc1 (configuration not stated),"inconclusive: 4.61 µM [falling, single point]",
CCCCn1c(SCc2nc(N)nc(Nc3ccccc3C)n2)nc2ccccc2c1=O,"inconclusive: 5.17 µM [rising, full curve]",
Cc1ccc(CNc2oc(-c3ccco3)nc2S(=O)(=O)c2ccccc2)cc1,,inconclusive: -17.2%
O=C(CSc1nc(-c2cccs2)cc(C(F)(F)F)n1)Nc1cc(OCC(F)(F)F)cc([N+](=O)[O-])c1,"inconclusive: 16.4 µM [falling, single point]",
COc1ccc2ccccc2c1/C=N/NC(=O)c1cc(C)[nH]n1,,inconclusive: 4.06%
O=C1CCC(/C=C/c2ccccc2)=NN1Cc1ccc(F)cc1,,inconclusive: 30.8%
Cc1cc(-c2nnc(CCC(=O)NC(C)c3cccc4ccccc34)o2)no1 (configuration not stated),,inconclusive: -12.9%
N#CC1CN(C(c2ccccc2)c2ccccc2)C1,,inconclusive: -9.38%
CC(=O)c1ccc(NC(=O)CSc2nc(=O)cc(N)n2-c2ccccc2)cc1,,inconclusive: 11.9%
COc1cccc2sc(N(CCCN(C)C)C(=O)CCS(=O)(=O)c3ccccc3)nc12,,inconclusive: -65%
CCOC(=O)c1sc(N/N=C/c2ccc(N(C)C)cc2)nc1C,,inconclusive: -28.8%
Cc1ccc(C)c(NC(=O)CNC(=O)N2CC(=O)Nc3ccccc32)c1,,inconclusive: 39.1%
CCn1c(SCC(=O)Nc2ccccc2OC)nc2ccccc2c1=O,"inconclusive: 2.59 µM [activator, partial curve]",
COc1ccc(CCNC(=O)CCCn2nc(C)c([N+](=O)[O-])c2C)cc1OC,,inconclusive: 4.85%
CCC(=O)N1CCN(c2ccc(NC(=O)COc3ccccc3[N+](=O)[O-])cc2)CC1,"inconclusive: 6.51 µM [activator, single point]",
COc1ccc(Cl)cc1NC(=O)[C@@H]1CCCN1C(=O)c1cccs1,,inconclusive: 15.4%
COc1ccc(NC(=O)CSc2nc3nc(C)cc(C)n3n2)cc1,,inconclusive: 81.8%

SMILES,Potency,"lipid storage change, negative = inhibition"
Cc1cc(C)c(NC(=O)c2ccc(S(=O)(=O)N(C)C)cc2)c(C)n1,,inconclusive: 18.9%
O=C(NCCCN1CCCC1=O)c1cc2ccccc2o1,,inconclusive: -0.549%
COc1cccc([C@@H]2CC=C(C(=O)O)[C@H](c3cccc(Cl)c3)N2S(=O)(=O)c2ccc(C)cc2)c1,"inconclusive: 2.59 µM [falling, full curve, poor fit]",
Cn1nc(N)c2c(-c3ccc(Cl)cc3)c(C#N)c(N)nc21,"inconclusive: 1.3 µM [activator, partial curve, poor fit]",
O=C(NC1CCN(C(=S)Nc2ccc(F)cc2)CC1)c1ccco1,"inconclusive: 14.6 µM [activator, partial curve]",
Cc1cccc(-c2n[nH]c(=S)n2C)c1,,inconclusive: -1.06%
CCOC(=O)c1cc2c(ccn2C)n1CC(=O)N1CCN(c2ccccc2)CC1,,inconclusive: -15.8%
Cc1nn(Cc2ccc(C(=O)Nc3nc4c(C)cccc4s3)o2)c(C)c1Br,,inconclusive: -29.3%
Cn1c(=O)oc2cc(S(=O)(=O)N3CCCC(C(=O)N4CC=C(c5ccccc5)CC4)C3)ccc21 (configuration not stated),,inconclusive: -2.25%
CCN1CCc2c(sc(NC(=S)NC(=O)c3ccccc3)c2C#N)C1,"inconclusive: 3.26 µM [activator, full curve]",
CC(Oc1ccc(Br)cc1)C(=O)NCC(C)(C)N1CCOCC1 (configuration not stated),"inconclusive: 6.51 µM [rising, single point]",
O=C(NCc1ccc(F)cc1)c1cccnc1,,inconclusive: -38.9%
CN(C)S(=O)(=O)c1cc(NC(=O)COC(=O)CCSc2ccc(Cl)cc2)ccc1Cl,,inconclusive: 54.2%
CCOc1ccc(CN(C)Cc2cc(=O)oc3cc(C)c(Cl)cc23)cc1,,inconclusive: 14.7%
COc1ccc2ccc(O)c(CN(C)CC(=O)Nc3ccccc3C(F)(F)F)c2c1,,inconclusive: -126%
CCOc1ccc(-c2cc(C(=O)NCCCn3ccnc3)c3cc(Br)ccc3n2)cc1,,inconclusive: -90%
O=C(C[n+]1ccccc1)N/N=C/c1ccccc1[N+](=O)[O-],"inconclusive: 29.1 µM [cytotoxic, single point]",
Cc1onc(-c2ccccc2Cl)c1C(=O)Nc1cccc(-c2cn3cccnc3n2)c1,"inconclusive: 1.64 µM [rising, partial curve]",
O=S(=O)(NCc1ccc(F)cc1)c1ccc(-n2cnnn2)cc1,,inconclusive: -4.99%
COc1ccccc1C(=O)NCCC(=O)N1CCN(c2cccc(C(F)(F)F)c2)CC1,,inconclusive: 42.8%
COc1ccc(NC(=O)N2CCC(C(=O)c3ccc4c(c3)OCCO4)CC2)cc1,"inconclusive: 20.6 µM [activator, partial curve, poor fit]",
O=C(CS(=O)(=O)Cc1ccccc1)NCc1ccccc1Cl,,inconclusive: 16%
COc1ccccc1C(=O)Nc1ccccc1SC(=O)c1ccccc1OC,,inconclusive: -27.6%
CCc1nc2ccccc2c(=O)n1NC(=O)c1c(O)c2cccc3c2n(c1=O)CCC3,"inconclusive: 5.8 µM [falling, full curve]",
O=C(NCc1cccnc1)c1sc2cc(Cl)ccc2c1Cl,,inconclusive: -8.75%
CC(C)(C)OC(=O)N1CCC(c2c(C(=O)NC3CC3)cnn2-c2ccccc2)CC1,"inconclusive: 16.4 µM [activator, partial curve]",

SMILES,Potency,"lipid storage change, negative = inhibition"
N#CC1=C(Nc2ccccc2)SC=C(c2ccc(Cl)c(Cl)c2)N=C1N1CCOCC1,,inactive: 6.25%
CCN(C(=O)CCS(=O)(=O)c1ccc(Br)cc1)c1ccc2c(c1)OCO2,"inconclusive: 0.082 µM [activator, full curve]",
O=C(COC(=O)/C=C/c1ccccc1[N+](=O)[O-])NC1CC1,,inconclusive: -2.85%
O=C(c1ccc(Cl)cc1)C1CCN(Cc2ccccc2)CC1,,inconclusive: 20.4%
Cc1ccc(S(=O)(=O)N(C)C)cc1NC(=O)C1CCN(C(=O)Nc2ccccc2)CC1,,inconclusive
C[C@H](C(=O)C=[N+]=[N-])N1C(=O)c2ccccc2C1=O,,inconclusive: 51.7%
O=C(Nc1ccccn1)C1CCCN1S(=O)(=O)c1ccc(Cl)cc1 (configuration not stated),,inconclusive: 16.3%
CC(C)c1ccc(NC(=S)Nc2ccc(OC(F)(F)F)cc2)cc1,,inconclusive: 9.81%
O=C(CCN1C(=O)COc2ccccc21)NCCN1CCOCC1,"inconclusive: 25.9 µM [falling, single point]",
C/C(CC(=O)NCCc1ccccc1)=N\NC(=O)COc1ccc(Br)cc1,,inconclusive: -97.4%
CCc1c(C)sc(NC(=S)NC(C)C2CCCO2)c1C(=O)OC (configuration not stated),,inactive: -1.69%
COC(=O)COc1ccc(S(=O)(=O)NCc2ccc3c(c2)OCO3)cc1C,"inconclusive: 6.51 µM [falling, partial curve, poor fit]",
Cc1ccccc1NC(=O)COC(=O)CCc1ccccc1,,inconclusive: -2.77%
Cc1ccc(CNC(=O)CC(C)S(=O)(=O)c2ccc3c(c2)NC(=O)CO3)cc1 (configuration not stated),,inconclusive: 56%
COC(=O)CSc1cc([N+](=O)[O-])ccc1NC(=O)OC,,inconclusive: 2.52%
Cc1[nH][nH]c(=O)c1C(c1ccc(Br)cc1)c1c(C)[nH][nH]c1=O,"inconclusive: 23.1 µM [activator, single point]",
Oc1ccc2cc(Br)ccc2c1CN1CCCC1,,inconclusive: -0.181%
O=C(NCc1ccc(Cl)cc1)c1ccc(-n2cccn2)nc1,,inconclusive: -4.54%
CCSc1nc2ccccc2c(=O)n1Cc1ccc(F)cc1,,inconclusive: -6.75%
Cc1c(C(=O)O)cccc1-c1ccc(/C=C2\SC(=O)NC2=O)o1,,inconclusive: 41.8%
O=C1c2ccccc2C(=O)N1Cc1ccccn1,,inactive: -22.3%
Cc1c(NC(=O)CN2C(=O)NC3(CCCCC3C)C2=O)cccc1[N+](=O)[O-] (configuration not stated),"inconclusive: 6.51 µM [falling, partial curve, poor fit]",
C=C(Cl)COc1ccc2c(CC)cc(=O)oc2c1,,inconclusive: 4.18%
CC(C)(C)c1ccc(NC(=O)COC(=O)CCN2C(=O)c3cccc([N+](=O)[O-])c3C2=O)cc1,,inconclusive: 19.9%
CC(=O)CSc1nnc2cc(C)c3ccccc3n12,"inconclusive: 0.651 µM [rising, full curve]",

# Entries shown so far that contain a COOH group, in the order listed:
SMILES,Potency,"lipid storage change, negative = inhibition"
COc1cccc([C@@H]2CC=C(C(=O)O)[C@H](c3cccc(Cl)c3)N2S(=O)(=O)c2ccc(C)cc2)c1,"inconclusive: 2.59 µM [falling, full curve, poor fit]",
Cc1c(C(=O)O)cccc1-c1ccc(/C=C2\SC(=O)NC2=O)o1,,inconclusive: 41.8%

# Fetched one by one from the entries so far, 3 records:
SMILES,Potency,"lipid storage change, negative = inhibition"
CC(=O)CSc1nnc2cc(C)c3ccccc3n12,"inconclusive: 0.651 µM [rising, full curve]",
Cc1c(NC(=O)CN2C(=O)NC3(CCCCC3C)C2=O)cccc1[N+](=O)[O-] (configuration not stated),"inconclusive: 6.51 µM [falling, partial curve, poor fit]",
O=C(CCN1C(=O)COc2ccccc21)NCCN1CCOCC1,"inconclusive: 25.9 µM [falling, single point]",
